Paper PMC7853129
No constants are given. Whether binding was seen depends on the method and setting. Binding seen in cells or lysates may run through a third protein. These calls come from enrichment with a bait or labelling near it, and not all partners need be listed.

Sequences of proteins named here, by UniProt entry; tags and fusion partners are left off. A change or cut given only in a name is not applied to a line headed by its entry.
UniProt P18572: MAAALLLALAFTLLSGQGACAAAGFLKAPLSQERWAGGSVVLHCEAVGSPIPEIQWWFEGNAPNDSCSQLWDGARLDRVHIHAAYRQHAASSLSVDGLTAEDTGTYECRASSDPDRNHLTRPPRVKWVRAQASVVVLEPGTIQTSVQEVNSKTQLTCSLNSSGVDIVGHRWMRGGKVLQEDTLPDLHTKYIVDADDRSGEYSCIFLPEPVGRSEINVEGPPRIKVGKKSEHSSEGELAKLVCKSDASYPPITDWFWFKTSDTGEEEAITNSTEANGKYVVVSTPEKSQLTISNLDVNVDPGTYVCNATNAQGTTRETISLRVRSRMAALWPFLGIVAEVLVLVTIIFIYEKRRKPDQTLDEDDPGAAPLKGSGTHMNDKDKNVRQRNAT
UniProt P07356: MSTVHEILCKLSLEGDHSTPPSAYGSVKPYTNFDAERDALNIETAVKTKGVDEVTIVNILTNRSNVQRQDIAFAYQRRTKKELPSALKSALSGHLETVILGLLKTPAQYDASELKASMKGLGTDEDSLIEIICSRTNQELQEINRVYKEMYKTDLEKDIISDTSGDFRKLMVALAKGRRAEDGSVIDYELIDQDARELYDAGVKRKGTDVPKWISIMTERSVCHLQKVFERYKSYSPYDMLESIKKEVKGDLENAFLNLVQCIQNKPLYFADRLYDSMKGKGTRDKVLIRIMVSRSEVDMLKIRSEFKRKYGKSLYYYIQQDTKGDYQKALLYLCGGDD

Target: CD147 (mouse (endogenous in thymocytes of C57BL/6 mice)) (UniProt P18572)
Experiment: affinity purification with mass spectrometry; co-IP from mouse thymocyte lysate (IP lysis/wash buffer, Pierce Co-IP Kit) with anti-CD147 antibody; IgG as negative control; eluate on 10% SDS-PAGE, silver stain, trypsin digest, LTQ mass spectrometer; proteins of the IgG group removed; two independent experiments

## Annexin A2 (from UniProt P07356 1-339)
  binding: binds
